Results from the supplement of paper PMC10849652.
The other results are listed elsewhere or left out.

The chains behind the UniProt entries cited, without tags or fusion partners. Where a name states a change or a piece, a line headed by the entry shows the natural chain unless it says otherwise.
UniProt O95630, whole entry, looked up: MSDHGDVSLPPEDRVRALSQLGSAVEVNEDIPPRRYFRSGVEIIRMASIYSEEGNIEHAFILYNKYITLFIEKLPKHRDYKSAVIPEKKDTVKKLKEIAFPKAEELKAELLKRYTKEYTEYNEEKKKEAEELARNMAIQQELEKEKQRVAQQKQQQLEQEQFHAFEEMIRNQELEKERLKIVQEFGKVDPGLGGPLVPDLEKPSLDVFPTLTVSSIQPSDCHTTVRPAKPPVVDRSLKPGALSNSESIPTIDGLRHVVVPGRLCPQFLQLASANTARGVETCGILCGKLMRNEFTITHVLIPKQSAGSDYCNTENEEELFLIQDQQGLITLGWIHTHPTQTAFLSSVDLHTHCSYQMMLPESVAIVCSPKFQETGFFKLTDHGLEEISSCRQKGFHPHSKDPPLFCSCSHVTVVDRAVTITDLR
UniProt Q9HBM1: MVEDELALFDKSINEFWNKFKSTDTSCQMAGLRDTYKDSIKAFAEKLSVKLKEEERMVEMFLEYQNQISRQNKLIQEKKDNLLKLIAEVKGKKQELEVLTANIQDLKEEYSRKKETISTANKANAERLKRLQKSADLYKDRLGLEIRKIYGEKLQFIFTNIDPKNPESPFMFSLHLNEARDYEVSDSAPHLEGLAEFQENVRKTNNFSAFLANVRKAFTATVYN
UniProt P43307: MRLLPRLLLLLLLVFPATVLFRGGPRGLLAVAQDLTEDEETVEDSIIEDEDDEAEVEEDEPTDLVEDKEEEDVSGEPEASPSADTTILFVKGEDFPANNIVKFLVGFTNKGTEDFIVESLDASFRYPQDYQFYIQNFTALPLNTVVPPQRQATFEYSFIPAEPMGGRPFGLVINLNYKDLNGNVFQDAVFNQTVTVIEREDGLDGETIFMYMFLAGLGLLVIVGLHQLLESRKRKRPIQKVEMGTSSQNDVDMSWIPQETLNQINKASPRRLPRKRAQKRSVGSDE
UniProt Q9BXP5: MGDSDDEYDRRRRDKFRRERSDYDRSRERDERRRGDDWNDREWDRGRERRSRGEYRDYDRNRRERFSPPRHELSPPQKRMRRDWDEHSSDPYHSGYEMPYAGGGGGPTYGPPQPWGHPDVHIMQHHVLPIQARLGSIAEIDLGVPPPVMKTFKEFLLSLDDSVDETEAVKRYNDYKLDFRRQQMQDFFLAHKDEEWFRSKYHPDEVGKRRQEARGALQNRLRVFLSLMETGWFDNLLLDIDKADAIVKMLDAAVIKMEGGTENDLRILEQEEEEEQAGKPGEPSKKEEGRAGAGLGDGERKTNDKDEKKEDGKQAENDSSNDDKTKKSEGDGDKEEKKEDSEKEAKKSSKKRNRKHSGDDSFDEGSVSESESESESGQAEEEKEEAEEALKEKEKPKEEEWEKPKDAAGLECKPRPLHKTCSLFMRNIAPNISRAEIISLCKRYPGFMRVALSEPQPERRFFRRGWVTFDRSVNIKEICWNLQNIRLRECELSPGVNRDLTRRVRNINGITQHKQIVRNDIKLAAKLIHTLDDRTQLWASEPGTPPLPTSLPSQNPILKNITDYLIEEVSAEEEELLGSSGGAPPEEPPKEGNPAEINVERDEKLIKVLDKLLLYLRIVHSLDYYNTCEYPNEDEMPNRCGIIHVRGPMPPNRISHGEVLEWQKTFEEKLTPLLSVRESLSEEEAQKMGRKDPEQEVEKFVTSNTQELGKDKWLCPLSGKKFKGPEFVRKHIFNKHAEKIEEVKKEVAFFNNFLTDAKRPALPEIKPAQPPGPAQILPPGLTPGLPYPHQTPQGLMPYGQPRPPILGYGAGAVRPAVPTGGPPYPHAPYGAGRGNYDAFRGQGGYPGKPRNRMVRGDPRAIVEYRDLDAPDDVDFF
UniProt Q15831: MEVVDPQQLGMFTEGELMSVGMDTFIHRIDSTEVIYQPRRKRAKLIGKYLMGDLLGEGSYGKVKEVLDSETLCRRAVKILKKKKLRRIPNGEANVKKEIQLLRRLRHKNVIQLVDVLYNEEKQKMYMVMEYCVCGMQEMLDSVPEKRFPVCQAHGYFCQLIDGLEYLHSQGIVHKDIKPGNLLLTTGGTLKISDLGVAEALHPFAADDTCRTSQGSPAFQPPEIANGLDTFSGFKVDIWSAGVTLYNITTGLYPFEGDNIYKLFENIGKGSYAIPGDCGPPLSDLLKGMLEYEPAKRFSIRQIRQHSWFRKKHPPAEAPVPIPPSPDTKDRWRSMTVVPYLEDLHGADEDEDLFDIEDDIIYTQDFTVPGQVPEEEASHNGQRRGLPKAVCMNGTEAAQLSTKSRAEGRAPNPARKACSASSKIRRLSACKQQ
UniProt P49458: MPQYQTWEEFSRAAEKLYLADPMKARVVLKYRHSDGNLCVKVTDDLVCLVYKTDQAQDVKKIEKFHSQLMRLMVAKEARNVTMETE
UniProt P16150: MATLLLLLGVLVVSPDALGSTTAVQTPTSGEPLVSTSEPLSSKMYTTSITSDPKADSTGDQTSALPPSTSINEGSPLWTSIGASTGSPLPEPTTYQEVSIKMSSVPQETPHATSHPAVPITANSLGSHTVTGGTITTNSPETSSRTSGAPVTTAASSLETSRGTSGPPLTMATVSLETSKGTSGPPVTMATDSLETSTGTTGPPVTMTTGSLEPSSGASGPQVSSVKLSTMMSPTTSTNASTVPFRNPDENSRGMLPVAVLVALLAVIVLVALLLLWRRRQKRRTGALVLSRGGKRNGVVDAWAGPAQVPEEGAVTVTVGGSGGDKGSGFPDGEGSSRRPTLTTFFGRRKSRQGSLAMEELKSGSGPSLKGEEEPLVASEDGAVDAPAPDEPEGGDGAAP
UniProt O15270: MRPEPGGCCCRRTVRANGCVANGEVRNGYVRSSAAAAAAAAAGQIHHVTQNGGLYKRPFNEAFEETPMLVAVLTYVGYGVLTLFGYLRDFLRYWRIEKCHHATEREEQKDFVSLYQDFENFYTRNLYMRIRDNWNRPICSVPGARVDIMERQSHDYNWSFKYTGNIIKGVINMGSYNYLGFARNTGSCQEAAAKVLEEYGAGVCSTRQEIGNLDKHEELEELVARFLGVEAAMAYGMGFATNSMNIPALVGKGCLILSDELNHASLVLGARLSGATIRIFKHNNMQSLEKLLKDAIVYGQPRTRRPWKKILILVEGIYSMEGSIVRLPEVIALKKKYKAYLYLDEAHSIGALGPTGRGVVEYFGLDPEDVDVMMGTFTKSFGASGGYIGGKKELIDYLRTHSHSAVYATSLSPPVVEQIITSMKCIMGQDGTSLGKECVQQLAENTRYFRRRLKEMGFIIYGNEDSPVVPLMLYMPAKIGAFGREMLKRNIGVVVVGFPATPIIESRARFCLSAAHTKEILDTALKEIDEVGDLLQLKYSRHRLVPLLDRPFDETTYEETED
UniProt Q96SB4, whole entry, looked up: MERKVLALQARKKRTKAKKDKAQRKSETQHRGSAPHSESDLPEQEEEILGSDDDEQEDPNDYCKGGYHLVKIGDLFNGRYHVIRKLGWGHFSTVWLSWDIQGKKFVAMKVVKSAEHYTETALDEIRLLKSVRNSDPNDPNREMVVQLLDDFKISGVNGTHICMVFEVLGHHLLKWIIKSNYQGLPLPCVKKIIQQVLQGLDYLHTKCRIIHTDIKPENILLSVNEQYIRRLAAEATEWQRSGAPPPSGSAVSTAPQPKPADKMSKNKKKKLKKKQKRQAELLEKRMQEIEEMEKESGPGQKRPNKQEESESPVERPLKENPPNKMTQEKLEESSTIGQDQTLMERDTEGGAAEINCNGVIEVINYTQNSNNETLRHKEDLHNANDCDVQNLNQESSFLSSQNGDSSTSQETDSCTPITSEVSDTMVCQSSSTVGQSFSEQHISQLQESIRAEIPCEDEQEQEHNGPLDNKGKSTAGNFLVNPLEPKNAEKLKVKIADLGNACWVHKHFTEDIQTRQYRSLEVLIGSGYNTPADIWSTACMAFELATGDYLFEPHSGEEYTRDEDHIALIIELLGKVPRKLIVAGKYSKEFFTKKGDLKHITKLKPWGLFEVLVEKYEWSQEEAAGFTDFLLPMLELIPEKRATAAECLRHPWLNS
UniProt Q9UQ90: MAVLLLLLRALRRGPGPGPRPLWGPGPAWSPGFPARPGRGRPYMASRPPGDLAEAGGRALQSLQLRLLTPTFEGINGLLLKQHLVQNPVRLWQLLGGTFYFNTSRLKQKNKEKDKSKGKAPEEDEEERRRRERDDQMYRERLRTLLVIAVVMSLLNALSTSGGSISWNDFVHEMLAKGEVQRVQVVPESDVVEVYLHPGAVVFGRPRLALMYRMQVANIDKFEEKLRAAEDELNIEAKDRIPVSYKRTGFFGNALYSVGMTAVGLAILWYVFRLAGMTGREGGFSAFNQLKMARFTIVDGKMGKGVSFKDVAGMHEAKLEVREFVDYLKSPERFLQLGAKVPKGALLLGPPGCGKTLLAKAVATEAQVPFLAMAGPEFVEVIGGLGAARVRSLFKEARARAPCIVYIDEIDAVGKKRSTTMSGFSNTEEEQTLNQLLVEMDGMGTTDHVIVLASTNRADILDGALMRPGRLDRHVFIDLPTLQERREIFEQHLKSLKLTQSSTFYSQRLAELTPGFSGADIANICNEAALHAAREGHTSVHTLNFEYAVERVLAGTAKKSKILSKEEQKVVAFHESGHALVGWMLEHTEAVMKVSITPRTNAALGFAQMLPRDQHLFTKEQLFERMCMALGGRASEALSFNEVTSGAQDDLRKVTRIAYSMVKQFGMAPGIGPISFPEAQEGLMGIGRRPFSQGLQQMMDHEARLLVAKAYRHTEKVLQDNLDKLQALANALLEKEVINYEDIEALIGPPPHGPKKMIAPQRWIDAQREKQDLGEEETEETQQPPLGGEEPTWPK
UniProt P09132: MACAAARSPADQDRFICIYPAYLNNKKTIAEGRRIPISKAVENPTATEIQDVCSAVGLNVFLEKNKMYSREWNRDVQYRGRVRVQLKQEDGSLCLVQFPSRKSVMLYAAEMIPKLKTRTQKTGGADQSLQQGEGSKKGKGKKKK
UniProt O95793: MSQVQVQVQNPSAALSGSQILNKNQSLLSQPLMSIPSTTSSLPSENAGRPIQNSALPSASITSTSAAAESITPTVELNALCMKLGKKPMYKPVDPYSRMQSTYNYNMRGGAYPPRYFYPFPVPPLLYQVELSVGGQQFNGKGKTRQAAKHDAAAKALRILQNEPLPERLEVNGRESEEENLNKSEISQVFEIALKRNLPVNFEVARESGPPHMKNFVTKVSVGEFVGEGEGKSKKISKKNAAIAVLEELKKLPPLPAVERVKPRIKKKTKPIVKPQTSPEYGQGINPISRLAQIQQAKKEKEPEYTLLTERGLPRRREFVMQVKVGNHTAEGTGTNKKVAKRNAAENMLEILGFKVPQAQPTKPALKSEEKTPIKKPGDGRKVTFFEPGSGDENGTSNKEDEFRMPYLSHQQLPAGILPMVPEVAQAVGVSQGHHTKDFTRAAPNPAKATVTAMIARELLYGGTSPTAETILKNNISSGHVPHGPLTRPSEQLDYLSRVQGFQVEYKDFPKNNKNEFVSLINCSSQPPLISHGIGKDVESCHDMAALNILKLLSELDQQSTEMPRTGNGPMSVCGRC
UniProt Q13243: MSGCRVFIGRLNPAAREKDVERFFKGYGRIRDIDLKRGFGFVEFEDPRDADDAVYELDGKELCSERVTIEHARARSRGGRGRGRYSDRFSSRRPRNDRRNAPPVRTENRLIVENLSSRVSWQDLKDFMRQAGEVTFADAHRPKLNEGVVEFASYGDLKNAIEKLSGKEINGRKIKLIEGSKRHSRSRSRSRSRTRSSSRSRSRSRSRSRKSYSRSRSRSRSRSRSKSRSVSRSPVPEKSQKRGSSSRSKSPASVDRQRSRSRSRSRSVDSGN
UniProt P19623: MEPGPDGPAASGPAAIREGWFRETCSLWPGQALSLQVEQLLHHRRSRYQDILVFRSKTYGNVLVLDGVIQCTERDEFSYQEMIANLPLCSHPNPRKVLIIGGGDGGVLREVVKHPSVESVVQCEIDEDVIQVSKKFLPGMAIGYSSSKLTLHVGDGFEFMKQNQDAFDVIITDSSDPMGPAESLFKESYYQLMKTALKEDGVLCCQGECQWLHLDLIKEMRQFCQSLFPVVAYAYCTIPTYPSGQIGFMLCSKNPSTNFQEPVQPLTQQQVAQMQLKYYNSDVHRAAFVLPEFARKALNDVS
UniProt P31948, whole entry, looked up: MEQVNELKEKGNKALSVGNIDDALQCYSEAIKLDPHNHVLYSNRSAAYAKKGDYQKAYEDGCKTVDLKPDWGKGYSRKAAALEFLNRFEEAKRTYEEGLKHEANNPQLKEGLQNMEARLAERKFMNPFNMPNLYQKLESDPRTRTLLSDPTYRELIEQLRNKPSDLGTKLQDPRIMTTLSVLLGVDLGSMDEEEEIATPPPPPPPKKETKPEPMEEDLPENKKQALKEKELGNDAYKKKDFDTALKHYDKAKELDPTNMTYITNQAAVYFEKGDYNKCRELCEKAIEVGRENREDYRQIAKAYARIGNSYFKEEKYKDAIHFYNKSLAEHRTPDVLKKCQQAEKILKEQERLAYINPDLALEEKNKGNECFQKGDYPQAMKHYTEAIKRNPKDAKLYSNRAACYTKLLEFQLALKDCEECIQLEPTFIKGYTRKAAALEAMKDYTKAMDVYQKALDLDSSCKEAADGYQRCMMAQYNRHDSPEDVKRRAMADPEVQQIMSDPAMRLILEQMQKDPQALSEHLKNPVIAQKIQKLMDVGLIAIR

compound: Cn1cc(-c2ccc3nnc(C(F)(F)c4ccc5ncccc5c4)n3n2)cn1; experiment: log2 fold change, soluble protein after heating vs DMSO (PISA); higher = thermal stabilisation; K562 cells, 10 uM, 30 min; active = over 0.2 and 3.5 SD of the protein, either way, in both replicates (recomputed)
Summary of the method: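 Quantification of soluble protein used TMTpro 16plex LC-MS/MS, with channel sums equalised. Samples were the supernatant after 21,000xg for 90 min of pooled aliquots from K562 cells (2×10^6 cells/mL) treated with 10 μM compound for 30 min, heated for 3 min over 48°C-58°C, and extracted in PBS with 0.5% NP-40 at 4°C. Values, from duplicates, describe thermal stability against control samples on a log2 fold-change scale.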

log2 fold change, inactive:
SSBP1 (UniProt Q04837) -0.042
STAMBP (UniProt O95630) 0.012
SPC25 (UniProt Q9HBM1) -0.047
SRRM1 (UniProt Q8IYB3) -0.18
SSR1 (UniProt P43307) 0
SRRT (UniProt Q9BXP5) 0.125
STK11 (UniProt Q15831) -0.059
SPTA1 (UniProt P02549) -0.099
SPTAN1 isoform 2 (UniProt Q13813) 0.028
SRP9 (UniProt P49458) -0.089
SPN (UniProt P16150) -0.017
SPTLC2 (UniProt O15270) 0.028
SRGN (UniProt P10124) -0.082
SRPK1 (UniProt Q96SB4) -0.156
SPG7 (UniProt Q9UQ90) 0.044
SRP19 (UniProt P09132) -0.083
SPRY4 (UniProt Q9C004) 0
SPC24 (UniProt Q8NBT2) -0.06
STAU1 (UniProt O95793) -0.187
SRP14 (UniProt P37108) -0.161
SRSF5 (UniProt Q13243) -0.126
SRM (UniProt P19623) 0.049
STIP1 isoform 2 (UniProt P31948) 0.017
SPATA5 (UniProt Q8NB90) -0.026

Copied from above (two entries):
log2 fold change, inactive:
SPG7 (UniProt Q9UQ90) 0.044
SRP19 (UniProt P09132) -0.083
